Experimental findings from publication PMC4130184 are described below.

No constants are given. Whether binding was seen depends on the method and setting. For some assays here: In cells and extracts the contact can be indirect. Some binding calls cover weakened binding; strength is not graded here. Where a sequence is shown, tags or fusion partners need not be part of it.

For test [1], the target named is T1, recombinant PRIN2 (pET_His1a, E. coli) (Arabidopsis thaliana) (UniProt Q9XIK0).
T1 sequence: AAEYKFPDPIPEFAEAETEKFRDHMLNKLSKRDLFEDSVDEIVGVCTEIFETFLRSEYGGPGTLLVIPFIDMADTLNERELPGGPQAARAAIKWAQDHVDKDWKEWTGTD
The test can be described thus: native gel or EMSA; 2D Native PAGE/SDS PAGE: recombinant PRIN2, CSP41b and a 1:1 mixture incubated in binding buffer, run on 4–12% Native Bis-Tris Gel, strips loaded on 12% SDS PAGE; detection with anti-His peroxidase; both purified. A general note: In EMSA bound probe runs differently from free probe, usually more slowly.

Test [2] deals with recombinant CSP41b (pET_His1a, E. coli) (Arabidopsis thaliana) (UniProt Q9SA52). The description is as above.
The target in test [3] is T1, recombinant PRIN2 (pET_His1a, E. coli) (Arabidopsis thaliana). Nature of the test: native gel or EMSA; EMSA with biotin-labelled psaA promoter probe (-196 to +1), also psbA-198 bp probe; 3 μg of each purified protein, DNA/protein molar ratio 1:100; room temperature 30 min; 6% native TBE-PAGE; heteromeric complex seen on DNA; both purified.
The target of test [4] is T2, full length PRIN2-cMyc fusion protein expressed in Arabidopsis protoplasts (Arabidopsis thaliana) (UniProt Q9XIK0).
T2 sequence: T1 sequence
Nature of the test: co-IP; PRIN2-cMyc and CSP41b-HA expressed in Arabidopsis protoplasts; Co-IP with anti-cMyc antibody on protein G magnetic beads; blot with anti-HA peroxidase.

B1: recombinant CSP41b (pET_His1a, E. coli) (protein, UniProt Q9SA52 51-378)
chain: SSEKKILIMGGTRFIGLFLSRILVKEGHQVTLFTRGKSPIAKQLPGESDQDFADFSSKILHLKGDRKDYDFVKSSLSAEGFDVVYDINGREAEEVEPILEALPKLEQYIYCSSAGVYLKSDILPHCEEDAVDPKSRHKGKLETESLLQSKGVNWTSIRPVYIYGPLNYNPVEEWFFHRLKAGRPIPVPNSGIQISQLGHVKDLATAFLNVLGNEKASREIFNISGEKYVTFDGLAKACAKAGGFPEPEIVHYNPKEFDFGKKKAFPFRDQHFFASVEKAKHVLGWKPEFDLVEGLTDSYNLDFGRGTFRKEADFTTDDMILSKKLVLQ
As to B1, the binding entry in test [1], in test [2] and in test [3] was “binds” in each case.

B2: full length CSP41b-HA fusion protein expressed in Arabidopsis protoplasts (protein, UniProt Q9SA52 51-378)
chain: B1 chain
In the case of B2, in test [4], the binding entry is listed as “binds”.

B3: recombinant PRIN2 (pET_His1a, E. coli) (protein, UniProt Q9XIK0 70-179)
chain: T1 sequence
Consider B3, for which the binding result in test [1] is given as “binds”.
